From ChEMBL document CHEMBL3792344, “Synthesis, molecular properties prediction and anticancer, antioxidant evaluation of new edaravone derivatives” (Bioorg Med Chem Lett, 2016)

Test system: A549
Assay: Cytotoxicity against human A549 cells assessed as inhibition of cell viability after 48 hrs by MTT assay
Assay type: functional, cell-based
Settings: A549, 48 h

Q: Which IC50 does the source give for `COc1cccc2c1C(=O)c1c(O)c3c(c(O)c1C2=O)C[C@@](O)(C(=O)CO)C[C@@H]3O[C@H]1C[C@H](N)[C@H](O)[C@H](C)O1` [DOXORUBICIN] here?
A: 3.3 µM
